# In the supplement of paper PMC3334620:
# Over roughly 33,000 sequences, “E-score (-0.5 to 0.5)” has its median near -0.015; the highest 2% begin near 0.3. The list shows a part of the results.
# Molecular target: T1, Abf1 (UniProt P14164)
# T1 sequence: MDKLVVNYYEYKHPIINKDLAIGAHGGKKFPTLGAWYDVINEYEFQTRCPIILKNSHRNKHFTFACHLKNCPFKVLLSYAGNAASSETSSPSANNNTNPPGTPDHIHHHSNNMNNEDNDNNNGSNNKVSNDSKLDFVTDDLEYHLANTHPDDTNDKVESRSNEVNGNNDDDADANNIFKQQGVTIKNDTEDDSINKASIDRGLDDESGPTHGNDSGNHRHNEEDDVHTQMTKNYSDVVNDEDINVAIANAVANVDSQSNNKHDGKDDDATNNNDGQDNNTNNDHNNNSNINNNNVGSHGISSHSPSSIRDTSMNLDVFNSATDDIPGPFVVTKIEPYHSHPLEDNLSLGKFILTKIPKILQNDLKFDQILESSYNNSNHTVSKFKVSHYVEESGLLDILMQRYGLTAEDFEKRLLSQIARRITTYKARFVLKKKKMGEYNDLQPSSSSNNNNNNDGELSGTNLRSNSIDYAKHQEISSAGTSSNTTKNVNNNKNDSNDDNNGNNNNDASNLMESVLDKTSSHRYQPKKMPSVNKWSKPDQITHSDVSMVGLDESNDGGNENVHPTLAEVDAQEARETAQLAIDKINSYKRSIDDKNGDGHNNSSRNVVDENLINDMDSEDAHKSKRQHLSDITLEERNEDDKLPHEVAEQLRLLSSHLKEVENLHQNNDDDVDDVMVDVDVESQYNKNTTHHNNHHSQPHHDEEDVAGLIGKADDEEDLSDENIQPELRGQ
# Experiment: PBM E-score (8-mer binding enrichment) (E-score (-0.5 to 0.5)); higher = stronger / more preferred TF binding
# Conditions: protein concentration: 200 nM; construct: GST-full length
# Procedure, shortened: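 The E-score, a modified Wilcoxon-Mann-Whitney statistic, was computed by the Universal PBM Analysis Suite for every ungapped eight-base word pooled with its reverse complement. Scans behind it were normalised with masliner after bound GST-tagged yeast transcription factors were detected with fluorescent anti-GST. The proteins, at about 100-200 nM, had been applied to universal all-10-mer Agilent arrays made double-stranded by primer extension.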
row,Sequence,PBM E-score
1,GCATAACC,0.0527
2,CAAGAGTC,-0.142
3,ACATTCTG,-0.0819
4,GTTTGTAA,-0.052
5,CCCAGATC,-0.159
6,CACAATGC,-0.12
7,AACCGCCC,-0.201
8,GCGTCGTA,0.418
9,CCTGCAGA,-0.0442
10,AGCGGGAC,-0.131
11,GATTACGA,0.24
12,GCAGTGGA,0.00291
13,ACACTTAG,-0.0129
14,ATGAATCG,0.219
15,GAAAGCAC,0.141
16,AAGGCTAA,0.0747
17,GATGGAGC,-0.078
18,GACTGCCC,-0.279
19,CACTTCTC,0.0401
20,ATTGCGAC,0.0678
21,CCTTACTC,-0.192
22,GCGGTGGA,0.00972
23,AGGCGGAT,-0.0114
24,AGCTTATC,0.0498
25,CGAGTGCA,0.0614

# A stretch taken from the entries so far, for reference:
row,Sequence,PBM E-score
2,CAAGAGTC,-0.142
3,ACATTCTG,-0.0819
4,GTTTGTAA,-0.052
5,CCCAGATC,-0.159

# (next part)

row,Sequence,PBM E-score
1,CTCCCGAG,-0.356
2,CGGCTGAG,-0.0713
3,GCATGTAC,0.0456
4,CTCGTAAG,0.132
5,CATAGCAA,-0.142
6,GGTGAGCA,-0.0811
7,TGTTAAAA,0.211
8,CCTGAAGC,-0.0841
9,AAAAAGGA,-0.189
10,ATATTAAA,0.33
11,CTTTACGA,0.119
12,CGGTACCA,-0.0203
13,CGAAGTAG,0.0374
14,AAGTCCTG,-0.265
15,TAAGGTGA,0.192
16,ACGCAGGC,-0.195
17,CAGTAAAC,-0.0465
18,ACGTTAGC,0.176
19,ATGTACTG,-0.022
20,CCTAGGCA,-0.0159
21,GAGGCCTC,-0.0245
22,ACAACGAC,0.0991
23,ATTAATAC,0.141
24,ACGGCTCC,0.18
25,CTCAGGTA,-0.16

row,Sequence,PBM E-score
1,ACCTGGAC,-0.144
2,AGTAAAGA,-0.163
3,AATTTATC,0.314
4,AAAACTAT,0.0284
5,CAAGACAA,0.146
6,CTAGATAC,0.176
7,AATCGGAG,-0.0257
8,AGCCACCG,-0.225
9,CTAGGTCC,-0.0604
10,GGGTGCCA,-0.067
11,TGCTCCCA,-0.0433
12,AATCTTTG,0.0379
13,GCAGCTGA,-0.00371
14,CTACAAAA,0.139
15,TTGTACAA,-0.0801
16,AGGTAAAA,-0.026
17,GCGACAGA,-0.0736
18,GAACACCC,-0.278
19,ATGGTTTG,-0.0664
20,GAAGTCGA,0.103
21,GATTCCCC,-0.183
22,AACTGTTG,-0.0805
23,GCTCTCAA,-0.0479
24,AGCCAAGC,-0.188
25,ATAGCAGA,-0.112

row,Sequence,PBM E-score
1,AAGCCGCA,-0.197
2,CAAAACAG,-0.0367
3,CTGGTACA,0.081
4,GGGGACTA,-0.00253
5,GAAAGGCC,0.145
6,GGGAACCA,-0.249
7,ACACCCGG,-0.145
8,AGTTGCAT,0.011
9,ACATTTCA,-0.0122
10,ATAGTTCA,0.0426
11,AATCCCGA,-0.0401
12,ATAATGCA,-0.0446
13,GCCGGAAC,-0.143
14,CTTGCTCA,-0.272
15,ACATACAT,0.086
16,CGCAGCAC,0.089
17,AGAGCATA,-0.0347
18,AATATGGG,-0.131
19,CGTGGAAA,0.258
20,ACAGCAAA,0.00185
21,GCTCGGAC,-0.176
22,ATTCTTGC,-0.0146
23,CGTCTGCC,0.118
24,CTGGAATA,-0.0462
25,GATATATC,0.332

row,Sequence,PBM E-score
1,ACTGAGTA,-0.144
2,GTCCACAC,0.0601
3,AACTACGC,0.0207
4,AAGACCAG,-0.24
5,ACGGCGCG,0.324
6,ATAGCCGC,-0.0864
7,CGTCGACC,0.0465
8,ACTCCATA,-0.0839
9,CACCGCAG,-0.243
10,GTAGCAAC,0.0376
11,CACGTTGG,0.00181
12,CGTTTAGA,0.152
13,GAGCGCCA,-0.0792
14,CTTACACA,-0.224
15,GTCACCCA,0.0895
16,AACAGGCA,-0.00595
17,ACGATCTC,0.252
18,ATATCGAA,0.107
19,AAGAAAAC,-0.1
20,ATACGGAC,0.142
21,CTATGTCC,-0.022
22,CCTGGTTC,-0.207
23,AAGGTTCT,-0.189
24,CGATTTTA,0.148
25,CCGTGAAC,0.131

row,Sequence,PBM E-score
1,CGCGAATA,-0.0651
2,CAGAAATC,0.0523
3,CAGACGTC,-0.103
4,ACCCACAG,-0.137
5,ATCAAGTC,0.119
6,AGTCTCTG,-0.0939
7,ACACACCG,0.0052
8,AGAAAATC,0.173
9,AGATCGAT,-0.0787
10,ACGATTTC,0.245
11,CAGCGGGA,-0.0787
12,GCAGGTAC,-0.221
13,ACCATGGG,-0.293
14,GTATACTA,-0.0911
15,CCCATGGG,0.0429
16,AGGAAAAA,0.0885
17,GCCGCAAA,0.0198
18,TATTAGAA,0.129
19,ACCCTAAA,-0.0503
20,AGAAGCAT,0.14
21,CGTAATGC,0.139
22,TCAAGAAA,0.0974
23,AATACCTA,0.124
24,CACCAAGG,-0.309
25,GAGAAAAA,0.109

# Quoted from the listing.
# Value of ATCAAGTC under PBM E-score: 0.119
# Value of AGAAGCAT under PBM E-score: 0.14
# Value of TCAAGAAA under PBM E-score: 0.0974
# Value of AATACCTA under PBM E-score: 0.124
# Value of CACCAAGG under PBM E-score: -0.309
# Value of CGCGAATA under PBM E-score: -0.0651

# Going on with the list:

row,Sequence,PBM E-score
1,TCCGGTAA,-0.0159
2,ATTCGATA,0.154
3,GGAAAAAA,0.222
4,CAAGACGC,-0.0963
5,ATGCTACC,0.0183
6,AAAGCGAT,0.219
7,CGCTACAG,-0.106
8,CATGCGGG,-0.0913
9,AGGCGGGA,-0.144
10,CAAGCGTC,-0.115
11,ATGGCTAC,0.196
12,GACTACTA,0.108
13,GAGACATC,0.161
14,CTATAAGC,-0.143
15,CAGGTACG,-0.0976
16,CGCAATCA,-0.0511
17,AAGAAAAT,0.123
18,GAAGGGCC,-0.184
19,GTCCAATA,0.154
20,GAGACGCA,-0.0136
21,GCTGCGTA,-0.0932
22,CAGGTGTA,-0.12
